# The list shows a part of the results.
# B1: S100A12 (Homo sapiens), P80511 (protein)
# chain: MTKLEEHLEGIVNIFHQYSVRKGHFDTLSKGELKQLLTKELANTIKNIKDKAVIDEIFQGLDANQDEQVDFQEFISLVAIALKAAHYHTHKE
# How the values were obtained:
# Assay in all cases: glycan array binding signal (z-score within array); higher = stronger binding
# Settings in all cases: glycan notation: IUPAC condensed, linker removed
# [1] = molecular target: Fuc(a1-2)Gal
# How it was run: (§1)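 Glycan array data were curated from 3228 arrays in the Consortium for Functional Glycomics database and kept only where the protein sequence was available. Glycan names were converted to IUPAC-condensed notation, and columns mapping to the same glycan were averaged. The binding signal is a within-array Z-score, averaged across arrays of the same protein sequence at different concentrations or buffers and across linkers. Negative Z-scores can be read as non-binding.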
# [2] = molecular target: Fuc(a1-2)Gal(b1-3)GalNAc
# How it was run: as §1
# [3] = molecular target: Fuc(a1-2)Gal(b1-3)GalNAc(b1-3)Gal
# How it was run: as §1
# [4] = molecular target: Fuc(a1-2)Gal(b1-3)GalNAc(b1-3)Gal(a1-4)Gal(b1-4)Glc
# How it was run: as §1
# [5] = molecular target: Fuc(a1-2)Gal(b1-3)GalNAc(b1-3)Gal(b1-4)Glc
# How it was run: as §1
# [6] = molecular target: Fuc(a1-2)Gal(b1-3)GalNAc(b1-4)[Neu5Ac(a2-3)]Gal(b1-4)Glc
# How it was run: as §1
# [7] = molecular target: Fuc(a1-2)Gal(b1-3)GlcNAc
# How it was run: as §1
# [8] = molecular target: Fuc(a1-2)Gal(b1-3)GlcNAc(b1-3)Gal(b1-4)Glc
# How it was run: as §1
# [9] = molecular target: Fuc(a1-2)Gal(b1-3)[Fuc(a1-4)]GlcNAc
# How it was run: as §1
# [10] = molecular target: Fuc(a1-2)Gal(b1-4)Glc
# How it was run: as §1
# [11] = molecular target: Fuc(a1-2)Gal(b1-4)Glc6S
# How it was run: as §1
# [12] = molecular target: Fuc(a1-2)Gal(b1-4)GlcNAc
# How it was run: as §1
# [13] = molecular target: Fuc(a1-2)Gal(b1-4)GlcNAc(b1-3)Gal(b1-4)GlcNAc
# How it was run: as §1
# [14] = molecular target: Fuc(a1-2)Gal(b1-4)GlcNAc(b1-3)Gal(b1-4)GlcNAc(b1-3)Gal(b1-4)GlcNAc
# How it was run: as §1
# [15] = molecular target: Fuc(a1-2)Gal(b1-4)GlcNAc6S
# How it was run: as §1
# [16] = molecular target: Fuc(a1-2)Gal(b1-4)[Fuc(a1-3)]GalNAc(b1-3)Gal(b1-4)[Fuc(a1-3)]GlcNAc
# How it was run: as §1
# [17] = molecular target: Fuc(a1-2)Gal(b1-4)[Fuc(a1-3)]GalNAc(b1-3)Gal(b1-4)[Fuc(a1-3)]GlcNAc(b1-3)Gal(b1-4)[Fuc(a1-3)]GalNAc
# How it was run: as §1
# [18] = molecular target: Fuc(a1-2)Gal(b1-4)[Fuc(a1-3)]GlcNAc
# How it was run: as §1
# [19] = molecular target: Fuc(a1-2)Gal(b1-4)[Fuc(a1-3)]GlcNAc(b1-3)Gal(b1-4)[Fuc(a1-3)]GlcNAc
# How it was run: as §1
# [20] = molecular target: Fuc(a1-2)Gal(b1-4)[Fuc(a1-3)]GlcNAc(b1-3)Gal(b1-4)[Fuc(a1-3)]GlcNAc(b1-3)Gal(b1-4)[Fuc(a1-3)]GlcNAc
# How it was run: as §1
# [21] = molecular target: Fuc(a1-2)Gal6S(b1-4)Glc
# How it was run: as §1
# [22] = molecular target: Fuc(a1-2)Gal6S(b1-4)Glc6S
# How it was run: as §1
# [23] = molecular target: Fuc(a1-2)Gal6S(b1-4)GlcNAc
# How it was run: as §1
# [24] = molecular target: Fuc(a1-2)GlcNAc
# How it was run: as §1
# [25] = molecular target: Fuc(a1-2)[Gal(a1-3)]Gal
# How it was run: as §1
# [26] = molecular target: Fuc(a1-2)[Gal(a1-3)]Gal(b1-3)GlcNAc
# How it was run: as §1
# [27] = molecular target: Fuc(a1-2)[Gal(a1-3)]Gal(b1-4)Glc
# How it was run: as §1
# [28] = molecular target: Fuc(a1-2)[Gal(a1-3)]Gal(b1-4)GlcNAc
# How it was run: as §1
# [29] = molecular target: Fuc(a1-2)[Gal(a1-3)]Gal(b1-4)[Fuc(a1-3)]GlcNAc
# How it was run: as §1
# [30] = molecular target: Fuc(a1-2)[Gal(a1-4)]Gal(b1-4)GalNAc
# How it was run: as §1
binder,measurement,setting,value
B1,glycan array binding signal (z-score),[1],-0.19
same,glycan array binding signal (z-score),[2],-0.479
same,glycan array binding signal (z-score),[3],1.87
same,glycan array binding signal (z-score),[4],-0.217
same,glycan array binding signal (z-score),[5],-0.391
same,glycan array binding signal (z-score),[6],-0.259
same,glycan array binding signal (z-score),[7],-0.69
same,glycan array binding signal (z-score),[8],-0.839
same,glycan array binding signal (z-score),[9],-0.697
same,glycan array binding signal (z-score),[10],-0.842
same,glycan array binding signal (z-score),[11],-0.59
same,glycan array binding signal (z-score),[12],-0.748
same,glycan array binding signal (z-score),[13],-0.73
same,glycan array binding signal (z-score),[14],0.096
same,glycan array binding signal (z-score),[15],-0.51
same,glycan array binding signal (z-score),[16],-0.48
same,glycan array binding signal (z-score),[17],-0.595
same,glycan array binding signal (z-score),[18],-0.599
same,glycan array binding signal (z-score),[19],-0.821
same,glycan array binding signal (z-score),[20],0.343
same,glycan array binding signal (z-score),[21],-0.521
same,glycan array binding signal (z-score),[22],0.472
same,glycan array binding signal (z-score),[23],-0.347
same,glycan array binding signal (z-score),[24],-0.615
same,glycan array binding signal (z-score),[25],-0.758
same,glycan array binding signal (z-score),[26],-0.548
same,glycan array binding signal (z-score),[27],-0.262
same,glycan array binding signal (z-score),[28],-0.418
same,glycan array binding signal (z-score),[29],0.104
same,glycan array binding signal (z-score),[30],-0.138

# Laid out differently: results already given.
binder	measurement	setting	value
B1	glycan array binding signal (z-score)	[24]	-0.615
same	glycan array binding signal (z-score)	[25]	-0.758

# From the supplement of paper PMC8728848
